Experimental data as given in PMC5220304.
No constants are given. Whether binding was seen depends on the method and setting. For some assays here: In cells and extracts the contact can be indirect. Some results given as binding are weak or reduced against the parent protein; the word gives no strength.

Sequences of proteins named here, by UniProt entry; tags and fusion partners are left off.
UniProt Q336P5: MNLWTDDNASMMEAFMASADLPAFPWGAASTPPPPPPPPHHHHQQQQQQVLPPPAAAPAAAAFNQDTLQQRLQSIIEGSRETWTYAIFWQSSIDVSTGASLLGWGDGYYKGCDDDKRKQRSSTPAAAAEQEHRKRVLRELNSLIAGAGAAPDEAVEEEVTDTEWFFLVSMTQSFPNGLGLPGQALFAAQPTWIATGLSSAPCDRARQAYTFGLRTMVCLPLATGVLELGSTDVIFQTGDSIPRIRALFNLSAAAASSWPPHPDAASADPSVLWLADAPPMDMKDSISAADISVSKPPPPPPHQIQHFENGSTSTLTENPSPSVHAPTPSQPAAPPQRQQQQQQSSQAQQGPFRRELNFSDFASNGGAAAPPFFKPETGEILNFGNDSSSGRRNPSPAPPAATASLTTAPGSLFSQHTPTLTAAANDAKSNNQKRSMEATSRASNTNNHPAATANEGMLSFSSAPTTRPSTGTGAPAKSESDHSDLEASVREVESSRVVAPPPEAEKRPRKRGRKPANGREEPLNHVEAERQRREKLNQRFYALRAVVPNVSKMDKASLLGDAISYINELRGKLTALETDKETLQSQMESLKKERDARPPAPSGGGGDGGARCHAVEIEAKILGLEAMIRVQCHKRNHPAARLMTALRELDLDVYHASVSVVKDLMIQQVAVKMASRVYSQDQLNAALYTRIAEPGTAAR

Key:
[1] = biological target: OsMYC2 from the wheat germ expression system (biotinylated His-Bls-OsMYC2 and FLAG-tagged OsMYC2) (rice (Oryza sativa)) (UniProt Q336P5); assay: AlphaScreen or HTRF; crude wheat germ translation mixtures; biotinylated His-Bls-OsMYC2 (streptavidin-coated donor beads) with FLAG-tagged proteins (anti-DYKDDDDK antibody, Protein A-coated acceptor beads); 100 mM Tris-HCl pH 8.0, 100 mM NaCl, 0.1% Tween20, 1 mg/mL BSA, 25 °C, 1 h
[2] = biological target: OsMYC2 fused to a half of EYFP (nYFP-OsMYC2 and cYFP-OsMYC2) (rice (Oryza sativa)) (UniProt Q336P5); assay: split reporter; BiFC: nEYFP-fused protein, cEYFP-fused protein and DsRed1 under the CaMV 35S promoter, bombarded into onion epidermal cells; 25 °C in darkness for 24 h; YFP fluorescence by microscopy

binding [1] | binding [2] | Substance
binds |  | OsMYC2 from the wheat germ expression system (biotinylated His-Bls-OsMYC2 and FLAG-tagged OsMYC2) (from UniProt Q336P5 1-699)
 | binds | OsMYC2 fused to a half of EYFP (nYFP-OsMYC2 and cYFP-OsMYC2) (from UniProt Q336P5 1-699)
